The values that follow come from PMC5068739 (PLoS ONE, 2016).

In the data set the test system is T1, Ta_PYL2DS_FL (with TaABI1).
T1 construct: full-length receptor (214 residues), codon-optimised, N-terminal His tag, E. coli; TaABI1 N-terminal His tag, E. coli; receptor:PP2C 10:1; with Protein phosphatase 2C ABI1
Put plainly: receptor-mediated PP2C inhibition, 4-methylumbelliferyl phosphate fluorescence. It counts as biochemical, Triticum aestivum. The settings on record: 0.1 uM ligand; TaABI1 (same result with AtABI1), receptor:PP2C 10:1, Mn2+, pH 7.9, 30 °C.

In the case of `CO[C@]1(/C=C/C(C)=C\C(=O)O)C(C)=CC(=O)CC1(C)C` [PBI352], the “% decrease in PP2C activity” value is ~ 30%.
The figure for `CO[C@@]1(/C=C/C(C)=C\C(=O)O)C(C)=CC(=O)CC1(C)C` [PBI354] is ~ 0%.
